From PubChem BioAssay AID2417 (National Center for Advancing Translational Sciences (NCATS), 2010)
Out of some 140,000 compounds screened, about 4,300 (3.1%) were called active. The inconclusive results got no clear call from the source; some entries with a clear call stand among them for comparison.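 The calls were made as follows: active = readout at or below -70, meaning at least 70% loss of cells showing the perinucleolar compartment, a nuclear body marking cancer cells; inconclusive = readout between -30 and a set limit; inactive = the rest.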

experiment: High Content Assay for Compounds that inhibit the Assembly of the Perinucleolar Compartment; details: PC3M PTB-GFP, PNC prevalence imaging, 16 h; at 10 µM; active compounds read low;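 also: plate controls were DMSO wells for no effect and camptothecin positive control wells for full effect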
In short: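 Compounds are pinned in duplicate onto adhered PC3M cells stably expressing GFP-tagged PTB and incubated 16 h at 37 C. Cells are then fixed, nuclei stained with Hoechst, and PNC-positive cells counted.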

| Structure (SMILES) | activity change (PNC), negative = inhibition |
| --- | --- |
| O=c1c2ccccc2nc(CNCc2ccco2)n1-c1ccc(F)cc1 | active: -82.8% |
| CN1CC(C(=O)c2ccccc2)C(C(=O)c2ccccc2)C1 (configuration not stated) | inactive: 23.9% |
| COc1ccc(NC(=O)N2CCC3(CC2)OCCO3)cc1OC | inconclusive: -33.2% |
| CSc1nnc([C@@H](N)Cc2ccccc2)o1 | inconclusive: -46.4% |
| O=C1/C(=C\c2cc3c(cc2Br)OCO3)N2CCC1CC2 | inconclusive: -57.3% |
| COc1ccc(C2SCC(=O)Nc3c2c(C)nn3-c2ccccc2)cc1 (configuration not stated) | inactive: 53.5% |
| CCOP(=O)(C#CC(C)(C)C)C(O)(c1ccccc1)C(F)(F)F (configuration not stated) | inconclusive: -33.2% |
| Cc1cc(N2C(=O)CC(N3CCC(n4c(=O)[nH]c5ccccc54)CC3)C2=O)no1 (configuration not stated) | inactive: 17% |
| CC(C)C(=O)c1cn(Cc2ccc(C#N)cc2)c2ccccc12 | inconclusive: -56.1% |
| CCOc1ccc(C2SCC(=O)Nc3c2c(=O)[nH]n3C2CCCCCC2)cc1 (configuration not stated) | inconclusive: -46.6% |
| CC12CN3CC(C)(CN(C1)C3c1cccs1)C2O (configuration not stated) | active: -107% |
| CC(C)N1C(=O)/C(=C/C=C/c2ccco2)C(=O)N(Cc2ccco2)C1=O | inconclusive: -44.9% |
| CN1CCc2nc(SCC(=O)OC(C)(C)C)c(C#N)cc2C1 | inconclusive: -36.4% |
| OC(c1ccccc1)(c1ccccc1)c1ccncc1 | inconclusive: -42.4% |
| COC(=O)N(c1ccccc1)P1(=S)OCCO1 | inconclusive: -36.2% |
| CCN(CC)CCCN=C(C)c1c(O)n(-c2ccccc2)c(=O)[nH]c1=O | inconclusive: -40.8% |
| O=C(Cc1ccccc1)OCCN1CCOCC1 | inconclusive: -59.3% |
| COc1cccc(-n2c(-c3ccoc3)nc3ccccc3c2=O)c1 | inconclusive: -55% |
| Cc1ccc2c(c1)C1CN(C)CCC1N2C(=O)COc1ccc(S(=O)(=O)N2CCOCC2)cc1 (configuration not stated) | inactive: 20.2% |
| CCC(=NCc1ccc2c(c1)OCO2)c1c(O)n(C2CCCCC2)c(=O)[nH]c1=O | active: -83.2% |
| Cc1cc(Cl)ccc1OCC(=O)O | inconclusive: -71.6% |
| CNC(=S)N/N=C1\C2CN3CCN(C2)CC1(c1ccccc1)C3 | inactive: -18.5% |
| CCCCN1C(=O)/C(=C/c2ccc(N(C)C)cc2)C(=O)N(Cc2ccco2)C1=O | inactive: 32.5% |
| Cc1cc(/C=C2/C(=O)NC(=O)N(Cc3ccco3)C2=O)c(C)n1-c1ccccc1 | inactive: 7.18% |

| Structure (SMILES) | activity change (PNC), negative = inhibition |
| --- | --- |
| CC(C)NCC(O)c1ccc(C2CCCC2)cc1 (configuration not stated) | inconclusive: -31.2% |
| CC(=O)Nc1ccccc1OP1(=O)COc2ccccc2OC1 | inconclusive: -47.9% |
| CC(=O)c1c(C)n(CC2CCCO2)c2ccc(O)cc12 (configuration not stated) | inactive: -6.42% |
| Nc1c(C(=O)NCCN2CCOCC2)c2nc3ccccc3nc2n1Cc1ccco1 | inconclusive: -61.4% |
| O=C1NC(=S)N(C2CC2)C(=O)/C1=C/c1ccc2c(c1)CCN2CCCCl | inactive: 56.5% |
| CC(=NCCCO)c1c(O)n(Cc2ccccc2)c(=O)[nH]c1=O | inconclusive: -34.8% |
| CCOP(=O)(OCC)C1(O)C(=O)Nc2ccc(Br)cc21 (configuration not stated) | inconclusive: -60.9% |
| COc1cc(CN2CCN(C(=O)COc3ccccc3)CC2)cc(OC)c1OC | inconclusive: -42.8% |
| O=c1[nH]c(=O)n(-c2ccc(F)cc2)c(O)c1C=Nc1ccccc1N1CCCC1 | inconclusive: -39.3% |
| CCCC(C)C(=O)NC1CCSC1=O (configuration not stated) | inactive: 27.1% |
| CN(C)c1ccc(/C=C2\CC3C4CC=C5CC(O)CCC5(C)C4CCC3(C)C2=O)cc1 (configuration not stated) | inconclusive: -35.5% |
| CCOC(=O)C1CCN(/C=C2/C(=O)NC(=O)N(Cc3ccco3)C2=O)CC1 | inconclusive: -68.9% |
| Clc1ccc(CNC2CN3CCC2CC3)cc1 (configuration not stated) | active: -80.2% |
| CCCc1[nH]nc2c1C1(C(=O)N(Cc3ccccc3)c3ccccc31)C(C(=O)OC)=C(N)O2 (configuration not stated) | inactive: 47.6% |
| CCCC(=O)Nc1cc(C(=O)N2CCC3(CC2)OCCO3)ccc1S(=O)(=O)c1ccc(C)cc1 | inconclusive: -42.2% |
| CCOP(=S)(OCC)SCC(=O)NC(C)(CC)C(=O)O (configuration not stated) | active: -111% |
| CC1(C)C[C@H]2C=C(C=O)[C@]3(C=O)C[C@]3(C)[C@H]2C1 | inconclusive: -74.2% |
| CC(=NCCCN1CCOCC1)c1c(O)n(-c2ccccc2C)c(=O)[nH]c1=O | inactive: 28.8% |
| CN1C(=O)N(C)C(=O)C(CCc2ccccn2)(CCc2ccccn2)C1=O | inconclusive: -46% |
| CC(=NCc1ccc2c(c1)OCO2)c1c(O)[nH]c(=O)[nH]c1=O | inactive: -17.3% |
| CCN1CCN(c2nc3c(c(=O)[nH]2)CCCC3)CC1 | inconclusive: -45.9% |
| O=C(Nc1ccc(OC(=O)N2CCCC2)cc1)N1CCOCC1 | active: -100% |
| CCc1ccc(/C=C(/C#N)C(N)=S)cc1 | inactive: 42% |

Exported with each value named: entries from further up.
Cc1cc(/C=C2/C(=O)NC(=O)N(Cc3ccco3)C2=O)c(C)n1-c1ccccc1
  activity change (PNC), negative = inhibition: inactive: 7.18%
CC(=NCc1ccc2c(c1)OCO2)c1c(O)[nH]c(=O)[nH]c1=O
  activity change (PNC), negative = inhibition: inactive: -17.3%
